These results are taken from article PMC7819943, “Rice protein-binding microarrays: a tool to detect cis-acting elements near promoter regions in rice”.

Chains of the proteins cited; added tags and fusions are not shown.
UniProt Q0JBA9, entry or part of it: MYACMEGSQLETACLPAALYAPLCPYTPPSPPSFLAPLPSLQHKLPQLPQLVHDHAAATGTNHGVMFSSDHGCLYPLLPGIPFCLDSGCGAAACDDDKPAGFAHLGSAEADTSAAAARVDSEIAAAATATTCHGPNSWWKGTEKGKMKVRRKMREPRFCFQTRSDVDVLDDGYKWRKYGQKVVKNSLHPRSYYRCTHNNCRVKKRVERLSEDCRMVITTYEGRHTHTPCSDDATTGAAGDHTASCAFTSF

The other results are listed elsewhere or left out.

This assay deals with OsWRKY34 (Oryza sativa, UniProt Q0JBA9 1-250). In words: protein-binding microarray (RPBM); PBS, 2% BSA, 51.3 ng/ul salmon testes DNA, 50 uM zinc acetate, 200 nM TF, 25 C, 1 h; high values mean tight binding. To be noted: protein: recombinant; tags: N-terminal polyhistidine and DsRed monomer fusion (pET32a); label: CyDye5-dUTP incorporated in the synthesized complementary strand; 3' TTTTT single-stranded linker to array surface; dsDNA, one strand shown. The essentials: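 Ni–NTA purification followed expression in E. coli BL21-CodonPlus of transcription factors fused N-terminally to a polyhistidine tag and DsRed. At 200 nM in PBS with 2% BSA, salmon testes DNA and 50 µM zinc acetate, the protein was incubated for 1 h at 25 °C with a custom Agilent array that had been primer-extended with Cy5-dUTP and blocked with 2% BSA. After washing, the array was read on an Axon 4000B scanner. The binding signal is per-feature fluorescence intensity in arbitrary units.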
“TTTTTTCTTTTTTTTTCTTTCACGCGGCTGGAGACTGGGGCGGAGTCACCTAGTGCAG”: the binding signal is 8270 fluorescence intensity (a.u.).

As to “GTGTCAAACATGCCCTTCGTATAATGCTACTGTTAATTACCGGAGTCACCTAGTGCAG”, the binding signal is 8300 fluorescence intensity (a.u.). Take “CTCTGCAATCCCCAATACTGAGACTGAGCACACACCCACACGGAGTCACCTAGTGCAG”: the binding signal is 8370 fluorescence intensity (a.u.). In the case of “CTTTGTAGTTCAATATTGTTGTTTATACGTTTATACTTTCCGGAGTCACCTAGTGCAG”, the binding signal was 14200 fluorescence intensity (a.u.).

For the sequence “CACGCTCCACTAATCCCTCCCGCCCATTTCCCACGGCCAACGGAGTCACCTAGTGCAG”, the binding signal is 9830 fluorescence intensity (a.u.). As to “GGTATAAAATGGGGCGGGCTCAATTTTTGTTAATTTTTTTCGGAGTCACCTAGTGCAG”, the binding signal was 12500 fluorescence intensity (a.u.).

Consider “TGGGTGTGCTGGCGCTATGATTCGATGATCATGAACTCCTCGGAGTCACCTAGTGCAG”, for which the binding signal is 8730 fluorescence intensity (a.u.). The value for “TTTTCTCTTTCTCTCTCCAAGGTGGCGGCGGGGTTGGTCCCGGAGTCACCTAGTGCAG” was 9020 fluorescence intensity (a.u.). For “TATTCTTCTGATTCATCCTGTTGCTGTCTGTCAAGTGGGACGGAGTCACCTAGTGCAG” the value was 10600 fluorescence intensity (a.u.). The value for “GCCCTGTTTATTTTGTACTACTACCGATCGGGCACGGATCCGGAGTCACCTAGTGCAG” was 8650 fluorescence intensity (a.u.); that for “ACTTGTTGGAGCTTCTGCCTTGTGTTGGGCACTGTGATAACGGAGTCACCTAGTGCAG” was 8320 fluorescence intensity (a.u.); that for “TGAGGGGCTCGGGGATTTGGAAATTTGCGTTTGGTTTTCGCGGAGTCACCTAGTGCAG” was 8160 fluorescence intensity (a.u.). “TTATCAAGACAACATTTTTTTTCCTTTGTGATGTTCTCAACGGAGTCACCTAGTGCAG”: the binding signal was 9310 fluorescence intensity (a.u.). The value for “CCCTAATATTTTCGTGTCTTGGTCCATATCCTCCATAAACCGGAGTCACCTAGTGCAG” was 8940 fluorescence intensity (a.u.); that for “CGTCATCGCGACGGCTTGATGGATCTCTTGCTGGACACCGCGGAGTCACCTAGTGCAG” was 8360 fluorescence intensity (a.u.); that for “GCCGTAATGCTTCTGAGTTCTGACTCCTGCTGCGCTCTCACGGAGTCACCTAGTGCAG” was 9150 fluorescence intensity (a.u.). With “CCAAGGAGCGTTGACTATTCGGCTTGAATAAAGGTGTGTTCGGAGTCACCTAGTGCAG”, the binding signal is 11600 fluorescence intensity (a.u.).

Regarding “ATCAAATTTACTCTCTTTTATTTTTCTTCTTGTTTGTCGTCGGAGTCACCTAGTGCAG”, the binding signal was 10900 fluorescence intensity (a.u.). As to “GCCCCTTGTCCCGCGTCGGCGCGTCCGGCCGGCGCCCGGCCGGAGTCACCTAGTGCAG”, the binding signal is 10500 fluorescence intensity (a.u.). The value for “TTCGTCTTCCACCTCGAGCTCTTACGCATCGTCAGCCATGCGGAGTCACCTAGTGCAG” was 9910 fluorescence intensity (a.u.). The value for “TCATCTCGATGGTGCTAACTCAATCTTTGCATGTTGAATACGGAGTCACCTAGTGCAG” was 8030 fluorescence intensity (a.u.). The value for “CTTCTGTCACCCTCCGTACCATCATCTACATCACCCCTCTCGGAGTCACCTAGTGCAG” was 8560 fluorescence intensity (a.u.). In the case of “ATCTTTGCCTCGTCAGGTTTTGCTCATTGGCGTCTCCATGCGGAGTCACCTAGTGCAG”, the binding signal was 10700 fluorescence intensity (a.u.).

With “GGAATTCACTGTCGGGGTCACACATCTACGTCCTTGTCCACGGAGTCACCTAGTGCAG”, the binding signal is 11900 fluorescence intensity (a.u.). “CTATGCTCCTGACCACTACTATCATCTCGTCTCGTCAGTCCGGAGTCACCTAGTGCAG”: the binding signal was 12900 fluorescence intensity (a.u.). The value for “TCATGTCTCACTGTTCAGAACCTCGCTTCTCGCTTTGACTCGGAGTCACCTAGTGCAG” was 10700 fluorescence intensity (a.u.); that for “ATCTACCTGCACCAACCGGAGACGCCCGCGCCCAGCTACCCGGAGTCACCTAGTGCAG” was 8570 fluorescence intensity (a.u.). On to “AACTCCAAGTCTCTATTTTCTCTCTTTCATAAGGTTTCCACGGAGTCACCTAGTGCAG”, for which the binding signal is 10000 fluorescence intensity (a.u.). For “GAAAACAAACTCATCATTAGGGTGTCTATATTCTCGCTCTCGGAGTCACCTAGTGCAG” the value was 8030 fluorescence intensity (a.u.). For “GGCGGCGCGGGTTTAGCGGGATGGGGAGGCGGCGAGTGGCCGGAGTCACCTAGTGCAG” the value was 8140 fluorescence intensity (a.u.); for “TCCATTATGGTATTTCTTAGTTGTTCTTTTGTCTTTTACCCGGAGTCACCTAGTGCAG”, 8840 fluorescence intensity (a.u.). For “GTATTATTGTCCCTTACATTGCTAACTCAATGTTGTATTACGGAGTCACCTAGTGCAG” the value was 8130 fluorescence intensity (a.u.); for “CCCAGCACACTGCCAGCCAGCCAGCCACTCATCAATCACTCGGAGTCACCTAGTGCAG”, 8160 fluorescence intensity (a.u.). For the sequence “AACAGACACACACCACCACCACTCTCTTCTCTACTACACTCGGAGTCACCTAGTGCAG”, the binding signal was 11200 fluorescence intensity (a.u.). Take “CCCACACACACTTCCAAGCTAGCCGTCTCCAACAACCCTCCGGAGTCACCTAGTGCAG”: the binding signal is 9570 fluorescence intensity (a.u.). The value for “CGCGCCGCCCGCCGTCCCCATGCCACCGCGCTGCCCGCCGCGGAGTCACCTAGTGCAG” was 10200 fluorescence intensity (a.u.); that for “CTCCACCTTATCATCATCACCACCACTAACAACAACGCCACGGAGTCACCTAGTGCAG” was 8320 fluorescence intensity (a.u.); that for “TGTGTTATGACTTATGAGGCCTTTCTTTAATGGTAGAATGCGGAGTCACCTAGTGCAG” was 8370 fluorescence intensity (a.u.).

Turning to “ATATTTTGCGTTTTGAATGAATTTTGGTTACTTGTTGGAGCGGAGTCACCTAGTGCAG”, the binding signal is 8192 fluorescence intensity (a.u.). For “GCGTCTACGTGGCTTGTTTGACTAGATCTTCGTTCCACGTCGGAGTCACCTAGTGCAG” the value was 8320 fluorescence intensity (a.u.); for “TCTTCGTTGTCTCCCTCGCTATCACTGTCATATTCCCATCCGGAGTCACCTAGTGCAG”, 8330 fluorescence intensity (a.u.).

On to “TAATGTACATTTCCTCTCCGCCGGCCACCAGTCTTCTCCCCGGAGTCACCTAGTGCAG”, for which the binding signal is 8640 fluorescence intensity (a.u.).
